Results from patent US20180011114A1.
These are yes or no findings as the source states them, for the method shown. Some binding calls cover weakened binding; strength is not graded here.

B1: AQ8 (antibody, V domains shown)
VH: EVNLVESGGGLVQPGGSMSLSCAASGFTFTDYYMSWVRQPPGKALEWLALIRNKANGYTTEYSASVKGRFTISRDNSQSILYLQMNALRAEDSATYYCARDSYYSYDGYAMDYWGQGTSVTVSS
VL: DIQMTQSPASLAASVGETITITCQASENIYFSLAWYQQKQGKSPQLLIYNTDSLKDGVPSRFSGSGSGTQYSMKINSMQPEDTATYFCRQSYDFPWTFGGGTKLEIK
B2: AJ540 (antibody, V domains shown)
VH: QIQLVQSGPELKKPGESVKISCKASGYTFTDYAMHWVKQVPGKGLKWMGWINTYTGKPTYADDFKGRFVFSLEASASTANLQISNLKNEDTANVFCAREGGGYYWYFDFWGPGTMVTVSS
VL: DIVMTQSPTSMSISVGDRVTMNCKANQNVDFNVDWYQQKTGQSPKLLIYKASNRYTGVPDRFTGSGSGTDFTFTISNMQAEDLAVYYCMQSNSFPLTFGSGTNLEIK

Key:
[1] = molecular target: anti-FIXa-arm of ACE910; test: ELISA, hybridoma culture supernatant
[2] = molecular target: anti-FX-arm of ACE910; test: ELISA, hybridoma culture supernatant

Binder	binding [1]	binding [2]
B1	binds	
B2		binds
